# Results taken from the supplement of paper PMC10338343.
# ± gives the standard deviation. The list shows a part of the results. Many entries were measured with a wide error.
# Test system: EfPiwi piRISC loaded with L1MC piRNA (26 nt)
# Test: pre-steady-state target cleavage rate (min^-1); guide: L1MC piRNA 5'p-UAACUAAAUACUAUGCAAGCUGUAGG; MIWI and MILI are mouse PIWI proteins and EfPiwi is from a freshwater sponge; tags in brackets are library labels; higher = faster piRNA-guided slicing of the target
# In short: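 For Cleave-'n-Seq, a transcribed, DNA-blocked target RNA library […] met 1 nM active affinity-purified piRISC with one synthetic guide at 33 °C for 0–8 or 0–960 min in HEPES–potassium acetate buffer, with or without 500 nM GTSF1 partner protein. Uncleaved targets were sequenced and normalised to depth and weakly complementary targets, with three trials pooled and k3 capped at 0.0001 min^-1. A burst-and-steady-state fit supplied the pre-steady-state cleavage rate.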
# [1] = auxiliary factor: 500 nM Ephydatia muelleri Gtsf1
# [2] = auxiliary factor: none (no Gtsf1)
Sequence,pre-steady-state target cleavage rate [1],pre-steady-state target cleavage rate [2]
UCCUGGAUGUGCUUGCAUAGUAUUUUGUUA,0.00341 ± 0.0026,–
UCCUCGUACAGCAUGCAUAGUAUUUAGUUA,0.0515 ± 0.013,–
UCCUGGAUGAGCUUGCAUAGUAUUAAGUUA,0.00469 ± 0.0021,–
UCCUGGAUGUCGAAGCAUUGUAUUAAGUUA,0.000112 ± 0.033,–
UCCUGGAUGAGCUUGCACAGUAUUUAGUUA,0.0152 ± 0.0046,–
UCCUGGAACAGCUUGCGUAGUAUUUAGUUA,–,0.0011 ± 0.01
UCCUGGUACACCUAGCAUAGUAUUUAGUUA,0.00319 ± 0.0029,–
UCCUGGAUGUCGAACGUUAGUUUUUAGAUA,0.000258 ± 0.027,–
UCCUGGAUGUCGAACGUUAGUAUUAAGUUA,0.000142 ± 0.022,–
UCCUGCUACAGUCUUGCAUAGUAUUUAGUUA,–,0.000641 ± 0.01
UCCUGGAACAGCUUCAUAGUAUUUAGUUA,0.0107 ± 0.0034,–
UCCUGGAUGAGCUAGCAUAGUUUUUAGUUA,–,0.000163 ± 0.049
UCCUGCUACAGCUUGGAUAGUAUUAAGUUA,0.0066 ± 0.0018,–
UCCUGCUACAGCUUGCAUAGUGAUUUAGUUA,–,0.000627 ± 0.011
UCCUCCUACAGCUUGCUUAGUAUUUAGUUA,0.0424 ± 0.012,–
UCCUGGUACAGCUUGCAUAGAUUUUAGUUA,0.000884 ± 0.01,–
UCCUGGUACAGCUUGCAUAGUAUAAUGUUA,–,0.00055 ± 0.014
UCCUGGAUGUCGAUGCAAAGUAUUUACUUA,0.000129 ± 0.018,–
UCCUCCUAGAGCUUGCAAAGUAUUUAGUUA,0.0214 ± 0.006,–
UCCUGGUACAGCUGGCAUAGUAUUUAGUUA,–,0.00103 ± 0.011
UCCUGGAUCUGGUUGCAUAGUAUUUAGUUA,–,0.000933 ± 0.014
UCCUGGAUGUCGAAGCAUAGAAUUUAGUAA,–,0.000453 ± 0.023
UCCUGGAUCAGCUUGCAUAGUAUUUGAGUUA,0.00696 ± 0.0028,–
UCCUGGAUGAGCUCUGCAUAGUAUUUAGUUA,0.00721 ± 0.0028,–

# 2 entries from above, reformatted.
Sequence | pre-steady-state target cleavage rate [1] | pre-steady-state target cleavage rate [2]
UCCUGGAACAGCUUCAUAGUAUUUAGUUA | 0.0107 ± 0.0034 | –
UCCUGGAUGAGCUAGCAUAGUUUUUAGUUA | – | 0.000163 ± 0.049
